Measured values from the supplement of paper PMC10849652.
The other results are listed elsewhere or left out.

By UniProt entry, the sequences of proteins in these tests, tags left out. Where a name states a change or a piece, a line headed by the entry shows the natural chain unless it says otherwise.
UniProt Q99536: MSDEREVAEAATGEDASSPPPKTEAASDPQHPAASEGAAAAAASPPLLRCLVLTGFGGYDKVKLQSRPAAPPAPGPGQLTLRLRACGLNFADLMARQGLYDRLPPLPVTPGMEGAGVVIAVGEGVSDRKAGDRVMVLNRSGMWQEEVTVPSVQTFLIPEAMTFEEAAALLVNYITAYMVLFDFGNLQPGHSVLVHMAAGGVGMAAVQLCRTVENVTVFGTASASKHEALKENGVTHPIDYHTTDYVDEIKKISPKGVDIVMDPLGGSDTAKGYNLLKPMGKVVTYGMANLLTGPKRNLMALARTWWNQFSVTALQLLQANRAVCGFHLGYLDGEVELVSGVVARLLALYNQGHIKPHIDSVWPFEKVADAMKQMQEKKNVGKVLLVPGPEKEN
UniProt P61960, whole entry, looked up: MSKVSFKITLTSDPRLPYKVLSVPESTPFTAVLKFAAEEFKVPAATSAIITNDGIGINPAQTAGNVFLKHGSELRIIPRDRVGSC
UniProt Q9NWZ5: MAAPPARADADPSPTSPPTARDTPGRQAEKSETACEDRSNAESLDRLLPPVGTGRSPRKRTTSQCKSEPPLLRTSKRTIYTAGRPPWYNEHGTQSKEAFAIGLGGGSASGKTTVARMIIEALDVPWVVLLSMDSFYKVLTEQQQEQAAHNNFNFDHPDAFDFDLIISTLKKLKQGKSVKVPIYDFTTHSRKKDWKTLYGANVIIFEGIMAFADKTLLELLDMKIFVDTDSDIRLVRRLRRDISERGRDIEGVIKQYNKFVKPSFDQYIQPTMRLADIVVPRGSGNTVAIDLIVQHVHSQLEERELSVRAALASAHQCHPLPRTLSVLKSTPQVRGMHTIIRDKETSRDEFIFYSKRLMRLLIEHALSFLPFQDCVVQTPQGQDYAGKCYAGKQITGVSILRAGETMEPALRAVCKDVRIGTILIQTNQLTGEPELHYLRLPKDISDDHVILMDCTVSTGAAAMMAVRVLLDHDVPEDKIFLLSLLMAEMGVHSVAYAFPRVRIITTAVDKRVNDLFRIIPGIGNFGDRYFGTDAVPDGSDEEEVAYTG
UniProt P45880: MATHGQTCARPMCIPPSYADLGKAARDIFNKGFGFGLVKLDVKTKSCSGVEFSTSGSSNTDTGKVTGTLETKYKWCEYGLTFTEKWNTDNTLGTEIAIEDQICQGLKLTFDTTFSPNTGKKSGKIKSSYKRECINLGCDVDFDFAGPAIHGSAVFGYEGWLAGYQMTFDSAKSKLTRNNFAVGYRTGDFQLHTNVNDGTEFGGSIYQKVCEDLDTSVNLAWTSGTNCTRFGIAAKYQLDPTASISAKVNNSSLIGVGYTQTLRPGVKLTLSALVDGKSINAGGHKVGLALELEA
UniProt Q15853: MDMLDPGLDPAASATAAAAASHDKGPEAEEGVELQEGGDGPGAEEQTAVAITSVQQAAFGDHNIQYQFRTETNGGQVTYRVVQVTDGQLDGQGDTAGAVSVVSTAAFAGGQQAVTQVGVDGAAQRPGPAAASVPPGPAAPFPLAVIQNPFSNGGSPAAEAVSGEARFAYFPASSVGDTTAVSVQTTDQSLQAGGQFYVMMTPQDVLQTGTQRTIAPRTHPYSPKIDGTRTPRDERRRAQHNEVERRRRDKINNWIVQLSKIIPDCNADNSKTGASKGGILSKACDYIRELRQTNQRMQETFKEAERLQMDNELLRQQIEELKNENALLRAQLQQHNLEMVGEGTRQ
UniProt P51809, whole entry, looked up: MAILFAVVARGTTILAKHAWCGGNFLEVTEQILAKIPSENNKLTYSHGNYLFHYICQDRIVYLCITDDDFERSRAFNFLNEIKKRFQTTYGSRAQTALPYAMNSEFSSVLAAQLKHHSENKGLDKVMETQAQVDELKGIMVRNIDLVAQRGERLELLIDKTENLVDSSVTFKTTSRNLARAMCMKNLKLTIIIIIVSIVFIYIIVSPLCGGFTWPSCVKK
UniProt Q92900: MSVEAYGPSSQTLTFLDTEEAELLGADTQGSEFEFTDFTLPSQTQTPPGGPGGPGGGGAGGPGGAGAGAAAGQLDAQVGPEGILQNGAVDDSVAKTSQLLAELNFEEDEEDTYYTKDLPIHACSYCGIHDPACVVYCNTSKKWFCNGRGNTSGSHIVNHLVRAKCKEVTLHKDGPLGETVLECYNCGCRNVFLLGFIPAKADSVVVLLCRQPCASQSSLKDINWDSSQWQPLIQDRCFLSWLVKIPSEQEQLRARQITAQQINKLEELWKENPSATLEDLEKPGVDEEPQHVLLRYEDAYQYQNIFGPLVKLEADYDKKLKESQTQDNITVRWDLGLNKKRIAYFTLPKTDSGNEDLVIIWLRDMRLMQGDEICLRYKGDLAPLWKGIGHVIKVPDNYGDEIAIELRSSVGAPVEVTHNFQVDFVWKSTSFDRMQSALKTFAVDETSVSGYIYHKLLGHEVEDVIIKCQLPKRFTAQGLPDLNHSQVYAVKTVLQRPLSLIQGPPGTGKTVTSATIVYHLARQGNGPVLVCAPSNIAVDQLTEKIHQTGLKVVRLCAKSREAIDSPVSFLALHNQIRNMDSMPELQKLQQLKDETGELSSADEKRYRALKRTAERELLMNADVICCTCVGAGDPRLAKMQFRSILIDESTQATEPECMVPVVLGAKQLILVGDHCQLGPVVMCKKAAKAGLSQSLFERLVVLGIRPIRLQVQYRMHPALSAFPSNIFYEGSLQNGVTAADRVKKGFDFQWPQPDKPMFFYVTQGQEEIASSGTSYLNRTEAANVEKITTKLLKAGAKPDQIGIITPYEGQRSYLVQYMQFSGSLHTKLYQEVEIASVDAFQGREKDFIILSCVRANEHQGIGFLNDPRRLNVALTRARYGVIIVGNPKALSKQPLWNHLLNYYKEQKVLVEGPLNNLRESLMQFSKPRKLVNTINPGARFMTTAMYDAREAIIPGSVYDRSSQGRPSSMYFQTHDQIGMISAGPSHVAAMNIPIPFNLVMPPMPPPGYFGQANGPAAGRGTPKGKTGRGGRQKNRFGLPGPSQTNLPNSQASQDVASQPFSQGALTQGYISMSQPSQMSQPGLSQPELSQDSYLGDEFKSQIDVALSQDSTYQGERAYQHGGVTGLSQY
UniProt Q8TED0: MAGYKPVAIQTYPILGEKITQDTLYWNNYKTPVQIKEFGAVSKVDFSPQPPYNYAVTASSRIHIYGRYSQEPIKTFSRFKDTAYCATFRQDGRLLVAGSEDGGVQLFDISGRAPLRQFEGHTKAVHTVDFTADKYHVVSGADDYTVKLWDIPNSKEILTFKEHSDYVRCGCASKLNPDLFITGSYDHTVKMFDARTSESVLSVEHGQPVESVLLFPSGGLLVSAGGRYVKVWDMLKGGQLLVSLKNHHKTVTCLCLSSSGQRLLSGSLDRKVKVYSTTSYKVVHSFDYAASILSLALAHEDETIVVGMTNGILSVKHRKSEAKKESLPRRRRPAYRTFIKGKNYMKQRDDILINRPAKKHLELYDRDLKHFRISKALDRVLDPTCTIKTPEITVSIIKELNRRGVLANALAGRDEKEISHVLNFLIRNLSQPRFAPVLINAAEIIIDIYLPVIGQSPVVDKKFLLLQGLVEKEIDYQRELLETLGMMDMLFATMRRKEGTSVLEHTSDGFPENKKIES
UniProt Q9NYH9: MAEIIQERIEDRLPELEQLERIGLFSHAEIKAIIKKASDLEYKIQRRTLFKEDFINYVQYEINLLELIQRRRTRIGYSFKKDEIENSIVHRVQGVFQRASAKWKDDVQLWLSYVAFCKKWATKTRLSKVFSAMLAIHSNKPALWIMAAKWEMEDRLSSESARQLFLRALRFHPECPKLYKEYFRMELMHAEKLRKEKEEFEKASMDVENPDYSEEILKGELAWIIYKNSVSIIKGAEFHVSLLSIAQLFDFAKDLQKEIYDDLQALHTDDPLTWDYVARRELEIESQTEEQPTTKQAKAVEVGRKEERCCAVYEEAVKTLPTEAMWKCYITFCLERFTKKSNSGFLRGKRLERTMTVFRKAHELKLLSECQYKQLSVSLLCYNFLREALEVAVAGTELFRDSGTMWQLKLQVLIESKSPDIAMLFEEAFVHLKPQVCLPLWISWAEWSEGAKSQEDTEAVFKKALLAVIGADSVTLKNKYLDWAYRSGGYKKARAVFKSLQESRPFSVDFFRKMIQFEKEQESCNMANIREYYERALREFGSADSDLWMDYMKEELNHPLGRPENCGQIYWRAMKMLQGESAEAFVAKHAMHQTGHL
UniProt Q8IX04: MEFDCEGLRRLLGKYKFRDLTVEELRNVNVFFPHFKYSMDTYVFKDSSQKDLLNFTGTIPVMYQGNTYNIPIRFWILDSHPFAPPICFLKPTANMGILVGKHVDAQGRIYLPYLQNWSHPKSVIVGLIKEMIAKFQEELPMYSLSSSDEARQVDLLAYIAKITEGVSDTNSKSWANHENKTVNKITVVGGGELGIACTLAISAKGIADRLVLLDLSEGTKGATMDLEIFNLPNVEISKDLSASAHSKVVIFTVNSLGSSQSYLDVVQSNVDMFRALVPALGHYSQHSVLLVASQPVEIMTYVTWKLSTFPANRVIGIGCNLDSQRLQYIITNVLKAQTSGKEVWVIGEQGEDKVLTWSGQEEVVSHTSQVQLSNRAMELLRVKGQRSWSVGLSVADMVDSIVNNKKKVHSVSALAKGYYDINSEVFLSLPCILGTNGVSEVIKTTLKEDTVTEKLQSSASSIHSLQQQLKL
UniProt Q9BVJ6: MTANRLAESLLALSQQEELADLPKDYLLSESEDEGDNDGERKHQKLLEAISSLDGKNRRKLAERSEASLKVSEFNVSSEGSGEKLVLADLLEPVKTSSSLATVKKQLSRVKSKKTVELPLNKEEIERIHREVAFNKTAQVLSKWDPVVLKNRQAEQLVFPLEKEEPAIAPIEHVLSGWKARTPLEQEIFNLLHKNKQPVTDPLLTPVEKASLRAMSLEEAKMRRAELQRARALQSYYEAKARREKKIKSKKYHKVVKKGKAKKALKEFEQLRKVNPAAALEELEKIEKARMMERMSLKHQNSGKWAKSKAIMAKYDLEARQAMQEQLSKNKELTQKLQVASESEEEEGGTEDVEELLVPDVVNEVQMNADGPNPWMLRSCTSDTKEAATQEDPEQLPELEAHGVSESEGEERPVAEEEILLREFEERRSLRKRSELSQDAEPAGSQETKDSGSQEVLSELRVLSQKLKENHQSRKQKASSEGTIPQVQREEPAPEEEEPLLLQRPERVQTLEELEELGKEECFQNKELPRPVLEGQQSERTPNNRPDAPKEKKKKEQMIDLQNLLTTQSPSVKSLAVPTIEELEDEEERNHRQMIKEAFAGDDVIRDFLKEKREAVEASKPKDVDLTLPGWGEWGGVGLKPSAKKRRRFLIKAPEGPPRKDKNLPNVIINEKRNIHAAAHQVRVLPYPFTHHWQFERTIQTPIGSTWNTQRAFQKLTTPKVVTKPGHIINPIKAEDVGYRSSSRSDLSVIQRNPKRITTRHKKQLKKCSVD
UniProt Q16880: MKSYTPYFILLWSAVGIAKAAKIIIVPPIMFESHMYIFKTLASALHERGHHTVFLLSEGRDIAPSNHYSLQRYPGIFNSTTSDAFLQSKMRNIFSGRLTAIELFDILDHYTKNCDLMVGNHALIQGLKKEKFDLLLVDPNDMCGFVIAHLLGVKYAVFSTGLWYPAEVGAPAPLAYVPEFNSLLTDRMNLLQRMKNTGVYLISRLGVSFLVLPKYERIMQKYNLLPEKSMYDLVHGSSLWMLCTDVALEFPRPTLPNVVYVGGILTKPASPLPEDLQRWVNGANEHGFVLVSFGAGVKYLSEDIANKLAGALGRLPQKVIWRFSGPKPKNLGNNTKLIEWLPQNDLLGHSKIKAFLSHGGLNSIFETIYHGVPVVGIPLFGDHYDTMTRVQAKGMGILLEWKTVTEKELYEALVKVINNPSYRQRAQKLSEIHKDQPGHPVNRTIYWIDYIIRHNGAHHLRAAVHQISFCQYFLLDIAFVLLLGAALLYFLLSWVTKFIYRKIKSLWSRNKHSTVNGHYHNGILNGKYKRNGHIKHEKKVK
UniProt O75379: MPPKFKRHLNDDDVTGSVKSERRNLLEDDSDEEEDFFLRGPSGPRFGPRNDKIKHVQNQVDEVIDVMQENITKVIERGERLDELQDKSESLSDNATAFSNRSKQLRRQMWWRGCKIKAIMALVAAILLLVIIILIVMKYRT
UniProt Q9NQZ2: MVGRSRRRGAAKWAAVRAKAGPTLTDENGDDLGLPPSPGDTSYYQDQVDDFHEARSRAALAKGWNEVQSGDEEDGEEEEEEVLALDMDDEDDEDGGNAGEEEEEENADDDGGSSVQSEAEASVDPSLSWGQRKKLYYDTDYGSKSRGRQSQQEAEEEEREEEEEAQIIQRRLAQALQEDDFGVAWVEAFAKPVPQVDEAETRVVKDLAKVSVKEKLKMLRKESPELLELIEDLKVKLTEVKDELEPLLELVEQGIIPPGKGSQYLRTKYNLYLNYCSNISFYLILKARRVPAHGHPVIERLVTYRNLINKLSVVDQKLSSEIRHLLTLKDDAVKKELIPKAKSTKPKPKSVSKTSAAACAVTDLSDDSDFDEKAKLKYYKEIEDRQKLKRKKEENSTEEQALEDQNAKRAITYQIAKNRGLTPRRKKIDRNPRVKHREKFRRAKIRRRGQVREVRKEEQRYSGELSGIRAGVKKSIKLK

Key:
Experiment in all cases: log2 fold change, soluble protein after heating vs DMSO (PISA); higher = thermal stabilisation; K562 lysate, 10 uM; active = over 0.2 and 3.5 SD of the protein, either way, in both replicates (recomputed)
alvocidib = compound: CN1CC[C@H](c2c(O)cc(O)c3c(=O)cc(-c4ccccc4Cl)oc23)[C@H](O)C1 [alvocidib]
Summary of the method: (§1)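 Soluble protein was defined as the supernatant remaining after 21,000xg for 90 min, following pooling of heated aliquots and adjustment to 0.5% NP-40 at 4°C. Before that, crude K562 extract at 1 mg/mL protein in PBS pH 7.4 with 1 mM MgCl2 was treated with 10 μM compound for 30 min and heated for 3 min across 48°C-58°C. Quantification used TMTpro 16plex LC-MS/MS with channel sums equalised, and values are log-two fold changes in thermal stability relative to solvent controls from duplicates.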

Tubastatin A = compound: CN1CCc2c(c3ccccc3n2Cc2ccc(C(=O)NO)cc2)C1 [Tubastatin A]
Summary of the method: as §1

[1] = compound: CNC(=O)C1=CC=CC=C1NC2=NC(=NC=C2Cl)NC3=C(C=C(C=C3)N4CCOCC4)OC
Summary of the method: as §1

defactinib = compound: CNC(=O)c1ccc(Nc2ncc(C(F)(F)F)c(NCc3nccnc3N(C)S(C)(=O)=O)n2)cc1 [defactinib]
Summary of the method: as §1

[2] = compound: CNc1nc(-c2ccc3c(N)n[nH]c3c2)cc(N2C[C@@H](C(=O)NC3CCCCC3)CC[C@H]2C)n1
Summary of the method: as §1

encorafenib = compound: COC(=O)N[C@@H](C)CNc1nccc(-c2cn(C(C)C)nc2-c2cc(Cl)cc(NS(C)(=O)=O)c2F)n1 [encorafenib]
Summary of the method: as §1

[3] = compound: COC(=O)[C@H](CCSC)NC(=O)C1=C(C=C(C=C1)NC[C@H](CS)N)C2=CC=CC=C2
Summary of the method: as §1

alisertib = compound: COc1cc(Nc2ncc3c(n2)-c2ccc(Cl)cc2C(c2c(F)cccc2OC)=NC3)ccc1C(=O)O [alisertib]
Summary of the method: as §1

[4] = compound: COc1cc2nc(-c3cc(F)ccc3O)nc(N[C@@H]3CNC[C@H]3C(C)(C)O)c2cc1OC
Summary of the method: as §1

gefitinib = compound: COc1cc2ncnc(Nc3ccc(F)c(Cl)c3)c2cc1OCCCN1CCOCC1 [gefitinib]
Summary of the method: as §1

Measured: log2 fold change

USP24 (UniProt Q9UPU5)
inactive: alvocidib 0.026 | Tubastatin A -0.093 | [1] -0.003 | defactinib -0.006 | [2] -0.076 | encorafenib 0.01 | [3] -0.002 | alisertib -0.011 | [4] 0.013 | gefitinib 0.061

VAT1 (UniProt Q99536)
inactive: alvocidib 0.009 | Tubastatin A 0.037 | [1] 0.005 | defactinib -0.004 | [2] 0 | encorafenib -0.022 | [3] -0.037 | alisertib -0.003 | [4] 0.024 | gefitinib -0.051

VAMP8 (UniProt Q9BV40)
inactive: alvocidib -0.032 | Tubastatin A 0.06 | [1] -0.006 | defactinib 0.012 | [2] -0.02 | encorafenib 0.023 | [3] -0.039 | alisertib -0.016 | [4] 0.005 | gefitinib -0.006

USP47 isoform 4 (UniProt Q96K76)
inactive: alvocidib 0.022 | Tubastatin A -0.057 | [1] 0.006 | defactinib 0.006 | [2] 0.015 | encorafenib 0.011 | [3] 0.044 | alisertib 0.003 | [4] 0.002 | gefitinib 0.002

UFM1 (UniProt P61960)
inactive: alvocidib 0.253 | Tubastatin A 0.102 | [1] 0.037 | defactinib 0.136 | [2] 0.088 | encorafenib 0.023 | [3] -0.076 | alisertib 0.038 | [4] -0.08 | gefitinib -0.116

UCKL1 (UniProt Q9NWZ5)
inactive: alvocidib 0.059 | Tubastatin A -0.159 | [1] -0.015 | defactinib 0.018 | [2] -0.025 | encorafenib 0.004 | [3] 0.054 | alisertib 0.058 | [4] -0.015 | gefitinib -0.031

UQCRH (UniProt P07919)
inactive: alvocidib -0.003 | Tubastatin A 0.03 | [1] -0.032 | defactinib -0.032 | [2] 0.017 | encorafenib -0.004 | [3] -0.064 | alisertib -0.011 | [4] -0.001 | gefitinib 0.001

VDAC2 isoform 2 (UniProt P45880)
inactive: alvocidib 0.007 | Tubastatin A 0.098 | [1] -0.001 | defactinib -0.004 | [2] 0.045 | encorafenib -0.023 | [3] -0.047 | alisertib 0.026 | [4] -0.014 | gefitinib -0.018

VAPA isoform 2 (UniProt Q9P0L0)
inactive: alvocidib -0.094 | Tubastatin A 0.044 | [1] -0.021 | defactinib -0.032 | [2] -0.001 | encorafenib 0.01 | [3] -0.184 | alisertib 0.035 | [4] 0.029 | gefitinib 0.021

UFD1 isoform 1 (UniProt Q92890)
inactive: alvocidib -0.025 | Tubastatin A 0.086 | [1] 0.014 | defactinib 0.019 | [2] 0.058 | encorafenib 0.05 | [3] -0.034 | alisertib 0.017 | [4] 0.022 | gefitinib 0.054

UTP18 (UniProt Q9Y5J1)
inactive: alvocidib 0.009 | Tubastatin A -0.05 | [1] 0.075 | defactinib -0.086 | [2] -0.049 | encorafenib -0.028 | [3] 0.006 | alisertib -0.032 | [4] -0.05 | gefitinib -0.046

UNC119B (UniProt A6NIH7)
inactive: alvocidib -0.016 | Tubastatin A 0.217 | [1] -0.033 | defactinib -0.09 | [2] 0.08 | encorafenib 0.021 | [3] 0.011 | alisertib -0.077 | [4] -0.041 | gefitinib -0.065

USF2 (UniProt Q15853)
inactive: alvocidib -0.063 | Tubastatin A -0.026 | [1] 0.094 | defactinib 0.052 | [2] 0.038 | encorafenib 0.049 | [3] 0.01 | alisertib 0.045 | [4] 0.008 | gefitinib 0.021

VIRMA (UniProt Q69YN4)
inactive: alvocidib 0.021 | Tubastatin A -0.094 | [1] 0.005 | defactinib 0.023 | [2] -0.031 | encorafenib 0 | [3] -0.009 | alisertib 0.014 | [4] 0.066 | gefitinib -0.068

VDAC2 (UniProt Q5JSD1)
inactive: alvocidib 0.003 | Tubastatin A -0.01 | [1] 0.029 | defactinib -0.013 | [2] 0.018 | encorafenib 0.002 | [3] -0.065 | alisertib -0.06 | [4] 0.006 | gefitinib -0.14

UHRF1 isoform 2 (UniProt Q96T88)
inactive: alvocidib 0.01 | Tubastatin A -0.152 | [1] -0.019 | defactinib -0.018 | [2] -0.01 | encorafenib -0.012 | [3] 0.039 | alisertib -0.001 | [4] -0.024 | gefitinib 0.011

VAMP7 (UniProt P51809)
inactive: alvocidib -0.042 | Tubastatin A 0.047 | [1] -0.028 | defactinib 0 | [2] -0.065 | encorafenib -0.007 | [3] -0.072 | alisertib -0.024 | [4] 0.024 | gefitinib 0.003

UPF1 (UniProt Q92900)
inactive: alvocidib -0.005 | Tubastatin A -0.012 | [1] 0.011 | defactinib 0.008 | [2] 0.024 | encorafenib -0.014 | [3] 0.026 | alisertib 0.008 | [4] -0.001 | gefitinib -0.002

UTP15 (UniProt Q8TED0)
inactive: alvocidib 0.001 | Tubastatin A 0.008 | [1] 0.088 | defactinib 0.026 | [2] -0.027 | encorafenib 0.009 | [3] -0.032 | alisertib -0.023 | [4] 0.006 | gefitinib 0.015

2 records picked at random from those above, as already listed:
VDAC2 (UniProt Q5JSD1)
inactive: alvocidib 0.003 | Tubastatin A -0.01 | [1] 0.029 | defactinib -0.013 | [2] 0.018 | encorafenib 0.002 | [3] -0.065 | alisertib -0.06 | [4] 0.006 | gefitinib -0.14

UTP15 (UniProt Q8TED0)
inactive: alvocidib 0.001 | Tubastatin A 0.008 | [1] 0.088 | defactinib 0.026 | [2] -0.027 | encorafenib 0.009 | [3] -0.032 | alisertib -0.023 | [4] 0.006 | gefitinib 0.015

Later entries:

UTP6 (UniProt Q9NYH9)
inactive: alvocidib 0.024 | Tubastatin A -0.138 | [1] 0.01 | defactinib 0.028 | [2] 0.049 | encorafenib -0.005 | [3] 0.113 | alisertib -0.026 | [4] 0.048 | gefitinib -0.006

URI1 (UniProt O94763)
inactive: alvocidib -0.017 | Tubastatin A -0.006 | [1] 0.051 | defactinib -0.089 | [2] -0.006 | encorafenib 0.061 | [3] 0.011 | alisertib 0.025 | [4] 0.002 | gefitinib 0.007

USP19 isoform 6 (UniProt O94966)
inactive: alvocidib 0.006 | Tubastatin A -0.014 | [1] -0.005 | defactinib -0.013 | [2] -0.025 | encorafenib 0.02 | [3] 0.032 | alisertib 0.003 | [4] 0.021 | gefitinib -0.005

UEVLD (UniProt Q8IX04)
inactive: alvocidib 0.021 | Tubastatin A 0.022 | [1] -0.04 | defactinib -0.013 | [2] -0.036 | encorafenib 0.06 | [3] -0.055 | alisertib -0.033 | [4] 0.042 | gefitinib -0.089

VASP (UniProt P50552)
inactive: alvocidib 0.031 | Tubastatin A 0.022 | [1] -0.017 | defactinib 0.013 | [2] -0.003 | encorafenib -0.033 | [3] -0.007 | alisertib 0.018 | [4] 0.009 | gefitinib 0.019

UTP14A (UniProt Q9BVJ6)
inactive: alvocidib -0.024 | Tubastatin A 0.022 | [1] 0.031 | defactinib -0.018 | [2] -0.001 | encorafenib -0.033 | [3] 0.021 | alisertib -0.011 | [4] 0.001 | gefitinib 0.016

UGT8 (UniProt Q16880)
inactive: alvocidib -0.005 | Tubastatin A 0.015 | [1] 0.02 | defactinib 0.177 | [2] -0.047 | encorafenib 0.044 | [3] 0.009 | alisertib 0.064 | [4] 0.049 | gefitinib -0.029

VAMP4 (UniProt O75379)
inactive: alvocidib -0.023 | Tubastatin A 0.046 | [1] -0.07 | defactinib 0.041 | [2] -0.115 | encorafenib 0.024 | [3] -0.073 | alisertib 0.141 | [4] 0.052 | gefitinib 0.029

UTP3 (UniProt Q9NQZ2)
inactive: alvocidib 0.04 | Tubastatin A -0.022 | [1] -0.047 | defactinib 0.151 | [2] 0.089 | encorafenib 0.05 | [3] 0.005 | alisertib -0.042 | [4] -0.002 | gefitinib -0.017

USP32 (UniProt Q8NFA0)
inactive: alvocidib -0.075 | Tubastatin A 0.034 | [1] 0.019 | defactinib 0.1 | [2] -0.025 | encorafenib 0.001 | [3] 0.109 | alisertib -0.065 | [4] 0.022 | gefitinib 0.048

UGGT1 (UniProt Q9NYU2)
inactive: alvocidib -0.009 | Tubastatin A 0.018 | [1] 0.006 | defactinib -0.005 | [2] -0.001 | encorafenib 0.009 | [3] -0.006 | alisertib -0.001 | [4] 0.011 | gefitinib -0.01
